Reference: US8362235B2, “Carboxamide compounds and methods for using the same” (Rigel Pharmaceuticals, Inc., priority 2009, dated 2013)
At least one compound was matched to its structure with a doubt left.

What follows are molecules tested against AMPK (assay: AMPK activation, enzyme-linked immunosorbent assay). Details: ELISA.
Description: Compounds 1-8 were assayed for their ability to activate AMPK using an enzyme-linked immunosorbent assay.
With `N#Cc1ccc(CN2CCC(NC(=O)c3ccc(C(=O)N4CCN(Cc5ccc(C#N)cc5)CC4)cn3)CC2)cc1` [Compound 1, 5-(4-(4-cyanobenzyl)piperazine-1-carbonyl)-N-(1-(4-cyanobenzyl)piperidin-4-yl)picolinamide] the EC50 was < 0.5 µM.
Work on `O=C(N[C@H]1CCN(Cc2ccc(F)cc2)C1)c1ccc(C(=O)N2CCN(c3ccc(Cl)cc3)CC2)cn1` [Compound 4, (S)-5-(4-(4-chlorophenyl)piperazine-1-carbonyl)-N-(1-(4-fluorobenzyl)pyrrolidin-3-yl)picolinamide] yielded an EC50 of 1 to 5 µM.
In the case of `O=C(N[C@H]1CCN(Cc2ccncc2)C1)c1ccc(C(=O)N2CCN(c3ccc(Cl)cc3)CC2)cn1` [Compound 5, (S)-5-(4-(4-chlorophenyl)piperazine-1-carbonyl)—N-(1-(pyridin-4-ylmethyl)pyrrolidin-3-yl)picolinamide], the EC50 is reported as 1 to 5 µM.
In the case of `O=C(NC1CCN(Cc2ccc(Cl)cc2)C1)c1ccc(C(=O)N2CCN(c3ccc(Cl)cc3)CC2)cn1` (stereo not shown) [Compound 7, N-(1-(4-chlorobenzyl)pyrrolidin-3-yl)-5-(4-(4-chlorophenyl)piperazine-1-carbonyl)picolinamide], the EC50 is reported as 1 to 5 µM.
